Data set [1] concerns the target She2p (ΔC) (Saccharomyces cerevisiae) (UniProt P36068). As to the kind of experiment: filter binding. Conditions: filter binding: 20 mM HEPES pH 7.4-7.5 (7.9 with She3p), 150 mM NaCl, 2 mM MgCl2, 2 mM DTT, 30 ug/ml yeast tRNA, 0.5 nM RNA, recombinant protein, protein details: GST tag (PreScission-cleaved), label: 32P.
Data set [2] deals with She2p (ΔhE) del174-183 (Saccharomyces cerevisiae) (UniProt P36068). The data set can be described thus: filter binding. The following applies: filter binding: 20 mM HEPES pH 7.4-7.5 (7.9 with She3p), 150 mM NaCl, 2 mM MgCl2, 2 mM DTT, 30 ug/ml yeast tRNA, 0.5 nM RNA, recombinant protein, protein details: GST tag (PreScission-cleaved), label: 32P.
The target in data set [3] is Puf6p (Saccharomyces cerevisiae) (UniProt Q04373). As to the kind of experiment: competition with a labelled probe. The following applies: 10-500x unlabeled EAR1 vs ASH1-E3 probe, competes poorly; EMSA: 20 mM HEPES pH 7.8, 200 mM NaCl, 2 mM MgCl2, 2 mM DTT, 4% glycerol, 30 or 100 ug/ml yeast tRNA, 5 nM RNA, 20 C; recombinant protein; label: 32P. (In general: Mobility shift assays separate free from complexed probe on a gel.)

By UniProt entry, the sequences of proteins in these tests, tags left out. Residues count along the entry.
UniProt P36068, 1-240, stated change not applied: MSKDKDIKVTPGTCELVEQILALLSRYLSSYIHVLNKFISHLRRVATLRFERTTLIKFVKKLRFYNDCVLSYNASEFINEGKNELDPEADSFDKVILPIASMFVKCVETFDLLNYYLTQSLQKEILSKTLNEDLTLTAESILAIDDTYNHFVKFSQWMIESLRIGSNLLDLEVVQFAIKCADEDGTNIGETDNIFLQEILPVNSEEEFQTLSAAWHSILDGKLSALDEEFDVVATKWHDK
UniProt P36068, whole entry Q197A/E198A/I199A: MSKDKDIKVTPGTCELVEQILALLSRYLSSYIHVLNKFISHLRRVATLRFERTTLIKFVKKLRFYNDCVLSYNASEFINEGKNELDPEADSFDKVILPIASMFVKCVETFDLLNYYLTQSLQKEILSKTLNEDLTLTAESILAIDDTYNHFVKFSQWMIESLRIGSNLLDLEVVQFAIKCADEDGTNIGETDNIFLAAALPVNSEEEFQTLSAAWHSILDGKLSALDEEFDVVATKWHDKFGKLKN
UniProt P36068, whole entry F195A/L196A: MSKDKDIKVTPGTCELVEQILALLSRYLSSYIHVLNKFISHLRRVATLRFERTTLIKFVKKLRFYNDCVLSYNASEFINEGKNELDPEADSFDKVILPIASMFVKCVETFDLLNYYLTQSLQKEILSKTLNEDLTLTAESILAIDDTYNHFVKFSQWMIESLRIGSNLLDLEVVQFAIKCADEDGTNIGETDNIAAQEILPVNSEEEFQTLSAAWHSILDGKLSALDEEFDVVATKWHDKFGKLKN
UniProt Q04373, 2-656: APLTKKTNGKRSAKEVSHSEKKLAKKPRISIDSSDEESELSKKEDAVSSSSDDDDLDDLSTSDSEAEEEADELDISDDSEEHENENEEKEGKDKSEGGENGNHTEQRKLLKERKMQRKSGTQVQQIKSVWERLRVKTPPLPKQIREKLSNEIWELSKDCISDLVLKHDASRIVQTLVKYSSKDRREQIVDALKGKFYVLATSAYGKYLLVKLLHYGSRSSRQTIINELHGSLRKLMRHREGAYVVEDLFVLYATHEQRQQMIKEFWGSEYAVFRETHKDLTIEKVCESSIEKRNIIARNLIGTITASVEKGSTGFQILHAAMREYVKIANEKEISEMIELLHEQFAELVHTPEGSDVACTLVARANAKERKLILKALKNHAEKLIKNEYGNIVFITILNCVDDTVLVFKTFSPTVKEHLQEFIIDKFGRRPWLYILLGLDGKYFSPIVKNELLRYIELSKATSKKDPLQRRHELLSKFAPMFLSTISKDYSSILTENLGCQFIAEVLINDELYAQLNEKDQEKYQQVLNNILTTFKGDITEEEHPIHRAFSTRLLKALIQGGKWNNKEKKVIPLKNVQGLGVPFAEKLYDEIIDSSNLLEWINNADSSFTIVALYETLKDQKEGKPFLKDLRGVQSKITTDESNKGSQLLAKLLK

Data set [4] deals with She2p (ΔC) + She3p. The data set can be described thus: EMSA. The following applies: impaired, not abolished; EMSA: 20 mM HEPES pH 7.8, 200 mM NaCl, 2 mM MgCl2, 2 mM DTT, 4% glycerol, 30 or 100 ug/ml yeast tRNA, 5 nM RNA, 20 C; recombinant protein; protein details: GST tag (PreScission-cleaved),C-terminal His6; label: 32P.
In data set [5] the target is T1, She3p (354-425) (Saccharomyces cerevisiae) (UniProt P38272).
T1 sequence (looked up): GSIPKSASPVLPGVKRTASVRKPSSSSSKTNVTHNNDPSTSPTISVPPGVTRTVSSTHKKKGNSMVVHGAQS
As to the kind of experiment: EMSA. The following applies: ++; EMSA: 20 mM HEPES pH 7.8, 200 mM NaCl, 2 mM MgCl2, 2 mM DTT, 4% glycerol, 30 or 100 ug/ml yeast tRNA, 5 nM RNA, 20 C; recombinant protein; residues 354-425; protein details: MBP and His6 (EMSA), His6 (SEC); label: 32P.

In data set [6] the test system is She2p + She3p (S348E). The data set can be described thus: EMSA. Conditions: synergism ++; EMSA: 20 mM HEPES pH 7.8, 200 mM NaCl, 2 mM MgCl2, 2 mM DTT, 4% glycerol, 30 or 100 ug/ml yeast tRNA, 5 nM RNA, 20 C; recombinant protein; protein details: GST tag (PreScission-cleaved),C-terminal His6; label: 32P.
The subject of data set [7] is She2p + She3p (354-425). The data set can be described thus: EMSA. The following applies: synergism +; EMSA: 20 mM HEPES pH 7.8, 200 mM NaCl, 2 mM MgCl2, 2 mM DTT, 4% glycerol, 30 or 100 ug/ml yeast tRNA, 5 nM RNA, 20 C; recombinant protein; label: 32P.
The test system of data set [8] is She2p + She3p (L364A V367A). As to the kind of experiment: EMSA. The following applies: synergism +; EMSA: 20 mM HEPES pH 7.8, 200 mM NaCl, 2 mM MgCl2, 2 mM DTT, 4% glycerol, 30 or 100 ug/ml yeast tRNA, 5 nM RNA, 20 C; recombinant protein; protein details: GST tag (PreScission-cleaved),C-terminal His6; label: 32P.
For data set [9], the system named is She2p (F195A L196A) + She3p. The data set can be described thus: EMSA. The following applies: synergism +; EMSA: 20 mM HEPES pH 7.8, 200 mM NaCl, 2 mM MgCl2, 2 mM DTT, 4% glycerol, 30 or 100 ug/ml yeast tRNA, 5 nM RNA, 20 C; recombinant protein; protein details: GST tag (PreScission-cleaved),C-terminal His6; label: 32P.
Data set [10] concerns She2p (Q197A E198A I199A) + She3p. As to the kind of experiment: EMSA. The following applies: synergism +; EMSA: 20 mM HEPES pH 7.8, 200 mM NaCl, 2 mM MgCl2, 2 mM DTT, 4% glycerol, 30 or 100 ug/ml yeast tRNA, 5 nM RNA, 20 C; recombinant protein; protein details: GST tag (PreScission-cleaved),C-terminal His6; label: 32P.
Data set [11] deals with She2p (Q197A E198A I199A) (Saccharomyces cerevisiae) (UniProt P36068). As to the kind of experiment: filter binding. The following applies: vs wild type, range over two mutants; filter binding: 20 mM HEPES pH 7.4-7.5 (7.9 with She3p), 150 mM NaCl, 2 mM MgCl2, 2 mM DTT, 30 ug/ml yeast tRNA, 0.5 nM RNA; recombinant protein; protein details: GST tag (PreScission-cleaved); label: 32P.

Data set [12] addresses She2p (F195A L196A) (Saccharomyces cerevisiae) (UniProt P36068). The data set can be described thus: filter binding. Conditions: vs wild type, range over two mutants; filter binding: 20 mM HEPES pH 7.4-7.5 (7.9 with She3p), 150 mM NaCl, 2 mM MgCl2, 2 mM DTT, 30 ug/ml yeast tRNA, 0.5 nM RNA; recombinant protein; protein details: GST tag (PreScission-cleaved); label: 32P.
Data set [13] addresses GST (UniProt P08515). As to the kind of experiment: pull-down. The following applies: immobilized GST control; pull-down: HNMD buffer, 4 C; recombinant protein.
For data set [14], the system named is She2p + She3p. The data set can be described thus: size-exclusion chromatography. The following applies: no ternary complex; recombinant protein; protein details: GST tag (PreScission-cleaved),C-terminal His6. On the technique in general: Size exclusion chromatography separates by hydrodynamic size, large species first.
The test system of data set [15] is She2p (ΔC) + She3p. As to the kind of experiment: size-exclusion chromatography. The following applies: no ternary complex; recombinant protein; protein details: GST tag (PreScission-cleaved),C-terminal His6.
The subject of data set [16] is Puf6p + She2p. The data set can be described thus: pull-down. The following applies: GST-Puf6p immobilized; pull-down: HNMD buffer, 4 C; recombinant protein.
The subject of data set [17] is Puf6p + She2p + She3p. The data set can be described thus: pull-down. The following applies: His-She3p immobilized, no Puf6p co-elution; pull-down: HNMD buffer, 4 C; recombinant protein.

For some assays here: No signal at the amounts used counts as a negative. For some assays here: The comparison behind a weaker result is the experiment's own reference, which may not be listed here. For some assays here: Protein sequences can lack the tags named with them. For some assays here: The exact form of at least one protein or probe is not confirmed. For some assays here: At least one verdict was read from the data and is not stated in words by the source.

As to “AAGACUAUGUUAAAAUACGCGAAGAAGUGGCUCAUUUCAAGCCAUUAAGUAUACCCAACUUAACUAAUAAUCAAAAUAA [ASH1 E1]”, the binding result in data set [1] and in [2] (residues …) was “binds more weakly” in each case.
Take “AGUUCAAAAACGUCCACGAAAUUGGACACGAAAACU [WSC2N]”: the binding result in data set [1] (moderately reduced) is on record as “binds more weakly”; in data set [2] (almost abolished, residues 1-246), “binds more weakly”.
On to “AUCUUCAUCUCCAUCUCCCUCCACACCGACGAAAAGUGGCAAGAUGAGAUCAAGAUCA [ASH1 E2B (domain 1)]”, for which the binding result in data set [1] and in data set [2] (residues …) was “binds more weakly” each time.
“CGAAGAUGAAAAUGAUCACGAGAGAGAUCCCGAACAAUUUUCAGAAUUUG [EAR1 zip code]”: the binding result in [3] was “binds more weakly”; in data set [4] it was “binds more weakly”; in [1] (moderately reduced), “binds more weakly”; in data set [2] (moderately reduced, residues 1-246) it was “binds more weakly”.
For the sequence “GAGACAGUAGAGAAUUGAUACAUGGAUAACUGAAUCUCUUUCAACUAAUAAGAGACAUUAUCACGAAACAAUUGUACAUUUCUCUCCUUGUCUGUGCUAAAUAAACUACAAAUAAAAA [ASH1 E3-118]”, the binding result in data set [5], in data set [6], in data set [7], in data set [8], in data set [9] and in data set [10] was “binds more weakly” throughout. Moreover, the binding result in data set [11] is “binds more weakly”; in [1] (+) it was “binds more weakly”; in data set [2] (+, residues 1-246), “binds more weakly”; in [12], “binds more weakly”.
“GGCUACGUAGCUCAGUUGGUUAGAGCAGCGGCCGGAGACAGUAGAGAAUUGAUACAUGGAUAACUGAAUCUCUUUCAACUAAUAAGAGACAUUAUCACGAAACAAUUGUACAUUUCUCUCCUUGUCUGUGCUAAAUAAACUACAAAUAAAAACCGCGGGUCACAGGUUCGAAUCCCGUCGUAGCCACCA [E3-118-tRNA]”: the binding result in data set [13] is “no binding”.
For “GGCUACGUAGCUCAGUUGGUUAGAGCAGCGGCCUGAAUCUCUUUCAACUAAUAAGAGACAUUAUCAGGCCGCGGGUCACAGGUUCGAAUCCCGUCGUAGCCACCA [E3-33-tRNA]”, the binding result in [14], in [15], in data set [16] and in [17] was “no binding” throughout.
On to “UUAUCCAUUGCACUCCGGAUGU [U1 snRNA hairpin II]”, for which the binding result is recorded as “binds” in data set [1] (not reduced vs wild type) and “binds” in data set [2] (not reduced vs wild type, residues 1-246).
Take “UUGCGAAUAGAGACAUUCUAUCGAACAAUUCCAAAUCUAAUGUAAGGAAACCAUCUAAGAACAAAAUCUCAAAGCAA [ASH1 E2A]”: the binding result in data set [1] and in data set [2] (residues …) was “binds more weakly” each time.

The values are drawn from PMC3079584.
